{"sequences": {"note": "Sequences of proteins named here, by UniProt entry; tags and fusion partners are left off. A change or cut given only in a name is not applied to a line headed by its entry.", "UniProt Q9H307": "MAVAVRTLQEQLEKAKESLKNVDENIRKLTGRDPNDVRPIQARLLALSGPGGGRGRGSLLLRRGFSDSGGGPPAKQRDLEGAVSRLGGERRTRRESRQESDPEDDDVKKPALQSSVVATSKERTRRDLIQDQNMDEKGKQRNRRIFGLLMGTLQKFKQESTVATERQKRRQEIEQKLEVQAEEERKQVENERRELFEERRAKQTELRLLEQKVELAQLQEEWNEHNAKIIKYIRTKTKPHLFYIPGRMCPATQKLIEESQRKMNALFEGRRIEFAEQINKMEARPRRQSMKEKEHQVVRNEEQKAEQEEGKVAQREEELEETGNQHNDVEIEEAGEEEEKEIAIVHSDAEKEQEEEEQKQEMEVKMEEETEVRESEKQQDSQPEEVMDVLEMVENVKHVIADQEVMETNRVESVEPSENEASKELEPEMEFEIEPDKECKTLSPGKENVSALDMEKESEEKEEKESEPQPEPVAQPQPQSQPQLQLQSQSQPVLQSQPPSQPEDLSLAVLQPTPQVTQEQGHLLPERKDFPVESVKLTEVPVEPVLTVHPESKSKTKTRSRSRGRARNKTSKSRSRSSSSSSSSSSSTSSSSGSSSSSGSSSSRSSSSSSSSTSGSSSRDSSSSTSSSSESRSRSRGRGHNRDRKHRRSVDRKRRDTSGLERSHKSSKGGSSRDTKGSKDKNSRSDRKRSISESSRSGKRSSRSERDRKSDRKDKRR"}, "source": "paper PMC6015020", "molecular_target": "FLAG-PININ-Mut (RSB domain deleted) (UniProt Q9H307)", "experiment": "co-IP; HeLa cells transfected with FLAG-tagged PININ, 48 h; lysis in PXL buffer, RNase A and Turbo DNase 10 min 37 °C; anti-FLAG beads 2 h; washes with 150 mM NaCl, 1% NP-40; western blot", "note": "These are yes or no findings as the source states them, for the method shown. In cells and extracts the contact can be indirect."}
{"binder": "SAP18 (endogenous, HeLa) (protein, UniProt O00422 1-153) MAVESRVTQEEIKKEPEKPIDREKTCPLLLRVFTTNNGRHHRMDEFSRGNVPSSELQIYTWMDATLKELTSLVKEVYPEARKKGTHFNFAIVFTDVKRPGYRVKEIGSTMSGRKGTDDSMTLQSQKFQIGDYLDIAITPPNRAPPPSGRMRPY", "values": [{"measurement": "binding", "value": "no binding"}]}
